Source: paper doi:10.1101/2021.05.24.445519 (bioRxiv, 2021)
No constants are given. Whether binding was seen depends on the method and setting. In cells and extracts the contact can be indirect. Here binding means that the protein was enriched with, or labelled near, the bait; the list need not be complete.

The chains behind the UniProt entries cited, without tags or fusion partners. Residues count along the entry.
UniProt P21549, residues 6-391: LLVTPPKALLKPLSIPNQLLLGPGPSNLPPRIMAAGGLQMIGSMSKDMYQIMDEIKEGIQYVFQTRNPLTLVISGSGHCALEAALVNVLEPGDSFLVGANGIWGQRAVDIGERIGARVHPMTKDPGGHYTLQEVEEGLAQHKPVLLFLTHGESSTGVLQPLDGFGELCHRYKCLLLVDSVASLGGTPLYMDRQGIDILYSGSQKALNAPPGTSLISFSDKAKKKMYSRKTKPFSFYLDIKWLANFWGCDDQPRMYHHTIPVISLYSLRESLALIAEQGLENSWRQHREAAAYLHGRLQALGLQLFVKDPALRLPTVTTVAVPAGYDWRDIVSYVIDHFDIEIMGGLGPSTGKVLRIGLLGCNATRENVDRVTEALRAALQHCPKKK

Molecular target: alanine:glyoxylate aminotransferase 1, major allele (AGT-Ma), expressed in HEK293 cells (human) (UniProt P21549)
Experiment: affinity purification with mass spectrometry

binding: binds
B1: FBXO21, a E3 ubiquitin ligase (protein, UniProt O94952 1-628)
chain: MAAAAVDSAMEVVPALAEEAAPEVAGLSCLVNLPGEVLEYILCCGSLTAADIGRVSSTCRRLRELCQSSGKVWKEQFRVRWPSLMKHYSPTDYVNWLEEYKVRQKAGLEARKIVASFSKRFFSEHVPCNGFSDIENLEGPEIFFEDELVCILNMEGRKALTWKYYAKKILYYLRQQKILNNLKAFLQQPDDYESYLEGAVYIDQYCNPLSDISLKDIQAQIDSIVELVCKTLRGINSRHPSLAFKAGESSMIMEIELQSQVLDAMNYVLYDQLKFKGNRMDYYNALNLYMHQVLIRRTGIPISMSLLYLTIARQLGVPLEPVNFPSHFLLRWCQGAEGATLDIFDYIYIDAFGKGKQLTVKECEYLIGQHVTAALYGVVNVKKVLQRMVGNLLSLGKREGIDQSYQLLRDSLDLYLAMYPDQVQLLLLQARLYFHLGIWPEKSFCLVLKVLDILQHIQTLDPGQHGAVGYLVQHTLEHIERKKEEVGVEVKLRSDEKHRDVCYSIGLIMKHKRYGYNCVIYGWDPTCMMGHEWIRNMNVHSLPHGHHQPFYNVLVEDGSCRYAAQENLEYNVEPQEISHPDVGRYFSEFTGTHYIPNAELEIRYPEDLEFVYETVQNIYSAKKENIDE
